# Measured values from the supplement of paper PMC12819154, “High-throughput peptide-centric local stability assay extends protein–ligand identification to membrane proteins, tissues and bacteria” (Nature Structural & Molecular Biology, 2025).
# The chains behind the UniProt entries cited, without tags or fusion partners. Where a name states a change or a piece, a line headed by the entry shows the natural chain unless it says otherwise.
# UniProt A6NHQ2: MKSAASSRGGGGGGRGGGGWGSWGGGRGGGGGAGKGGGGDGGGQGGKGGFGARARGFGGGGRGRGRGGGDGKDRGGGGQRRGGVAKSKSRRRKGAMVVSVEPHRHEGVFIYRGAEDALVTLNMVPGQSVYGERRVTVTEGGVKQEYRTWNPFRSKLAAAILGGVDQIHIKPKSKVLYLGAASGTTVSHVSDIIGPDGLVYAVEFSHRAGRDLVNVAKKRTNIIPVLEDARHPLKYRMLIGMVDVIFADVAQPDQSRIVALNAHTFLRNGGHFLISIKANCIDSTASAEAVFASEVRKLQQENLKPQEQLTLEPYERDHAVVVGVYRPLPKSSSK
# UniProt O00442: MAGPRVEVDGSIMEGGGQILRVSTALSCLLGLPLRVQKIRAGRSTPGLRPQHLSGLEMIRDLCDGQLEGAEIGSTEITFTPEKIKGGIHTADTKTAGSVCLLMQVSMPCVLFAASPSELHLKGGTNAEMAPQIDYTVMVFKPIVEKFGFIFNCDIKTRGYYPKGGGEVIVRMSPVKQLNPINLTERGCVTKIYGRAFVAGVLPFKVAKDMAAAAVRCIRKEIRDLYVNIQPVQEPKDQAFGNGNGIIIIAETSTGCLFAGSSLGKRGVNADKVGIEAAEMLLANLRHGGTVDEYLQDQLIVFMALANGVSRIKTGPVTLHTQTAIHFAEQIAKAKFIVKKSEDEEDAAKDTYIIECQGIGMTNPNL
# UniProt O14841: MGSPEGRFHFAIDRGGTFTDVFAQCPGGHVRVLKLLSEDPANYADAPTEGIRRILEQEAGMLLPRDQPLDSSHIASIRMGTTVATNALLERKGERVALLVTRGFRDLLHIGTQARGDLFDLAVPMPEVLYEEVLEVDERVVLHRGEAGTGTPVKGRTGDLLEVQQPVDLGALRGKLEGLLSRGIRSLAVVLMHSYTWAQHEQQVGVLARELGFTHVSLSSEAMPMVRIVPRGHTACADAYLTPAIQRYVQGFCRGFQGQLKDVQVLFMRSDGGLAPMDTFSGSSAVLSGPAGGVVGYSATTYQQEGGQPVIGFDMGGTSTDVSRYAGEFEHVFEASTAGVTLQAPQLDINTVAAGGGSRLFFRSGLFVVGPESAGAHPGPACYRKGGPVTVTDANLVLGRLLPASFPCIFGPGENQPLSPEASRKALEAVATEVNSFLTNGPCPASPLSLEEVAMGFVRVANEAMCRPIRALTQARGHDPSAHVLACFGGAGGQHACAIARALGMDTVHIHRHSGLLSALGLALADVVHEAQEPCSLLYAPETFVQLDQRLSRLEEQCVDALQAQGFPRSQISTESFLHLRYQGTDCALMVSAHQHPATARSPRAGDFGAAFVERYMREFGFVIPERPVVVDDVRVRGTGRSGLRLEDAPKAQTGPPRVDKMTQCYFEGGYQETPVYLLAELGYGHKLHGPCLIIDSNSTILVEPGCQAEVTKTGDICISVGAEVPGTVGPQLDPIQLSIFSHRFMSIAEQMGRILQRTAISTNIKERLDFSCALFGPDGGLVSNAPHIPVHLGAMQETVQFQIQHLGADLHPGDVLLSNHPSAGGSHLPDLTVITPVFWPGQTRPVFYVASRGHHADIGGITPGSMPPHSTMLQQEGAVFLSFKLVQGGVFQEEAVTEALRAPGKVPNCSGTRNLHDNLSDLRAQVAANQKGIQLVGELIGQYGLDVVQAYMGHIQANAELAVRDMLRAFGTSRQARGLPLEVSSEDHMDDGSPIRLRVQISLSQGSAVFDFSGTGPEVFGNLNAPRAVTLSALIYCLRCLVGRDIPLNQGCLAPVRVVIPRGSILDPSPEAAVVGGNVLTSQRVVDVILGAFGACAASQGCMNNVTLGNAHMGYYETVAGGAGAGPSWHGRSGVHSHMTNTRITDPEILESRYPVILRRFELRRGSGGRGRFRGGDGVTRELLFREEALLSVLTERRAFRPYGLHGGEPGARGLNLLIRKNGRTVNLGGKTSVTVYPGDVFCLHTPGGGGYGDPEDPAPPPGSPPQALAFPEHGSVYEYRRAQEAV
# UniProt O14508, whole entry: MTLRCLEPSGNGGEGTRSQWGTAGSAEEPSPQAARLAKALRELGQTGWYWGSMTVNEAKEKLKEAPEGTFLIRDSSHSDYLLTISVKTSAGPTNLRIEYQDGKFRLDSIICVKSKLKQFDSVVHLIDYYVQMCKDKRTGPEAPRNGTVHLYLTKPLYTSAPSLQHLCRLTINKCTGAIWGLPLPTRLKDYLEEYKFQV
# UniProt O00255, whole entry: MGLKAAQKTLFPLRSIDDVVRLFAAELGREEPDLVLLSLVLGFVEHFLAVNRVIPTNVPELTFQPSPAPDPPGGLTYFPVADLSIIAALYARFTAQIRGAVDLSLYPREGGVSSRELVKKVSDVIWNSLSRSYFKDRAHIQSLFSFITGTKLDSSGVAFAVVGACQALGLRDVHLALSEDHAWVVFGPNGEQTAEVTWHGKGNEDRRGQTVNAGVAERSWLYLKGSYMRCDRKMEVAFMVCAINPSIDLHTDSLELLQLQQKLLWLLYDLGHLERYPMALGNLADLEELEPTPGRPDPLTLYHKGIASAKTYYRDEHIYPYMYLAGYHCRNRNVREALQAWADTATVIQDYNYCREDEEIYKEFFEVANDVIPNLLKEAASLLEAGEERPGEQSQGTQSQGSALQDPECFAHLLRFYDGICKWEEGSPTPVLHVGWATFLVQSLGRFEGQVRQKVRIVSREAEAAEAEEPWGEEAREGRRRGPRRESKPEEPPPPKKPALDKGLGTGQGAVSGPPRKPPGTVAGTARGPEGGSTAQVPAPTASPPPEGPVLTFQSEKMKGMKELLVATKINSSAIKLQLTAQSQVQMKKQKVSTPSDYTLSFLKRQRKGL
# UniProt O14656: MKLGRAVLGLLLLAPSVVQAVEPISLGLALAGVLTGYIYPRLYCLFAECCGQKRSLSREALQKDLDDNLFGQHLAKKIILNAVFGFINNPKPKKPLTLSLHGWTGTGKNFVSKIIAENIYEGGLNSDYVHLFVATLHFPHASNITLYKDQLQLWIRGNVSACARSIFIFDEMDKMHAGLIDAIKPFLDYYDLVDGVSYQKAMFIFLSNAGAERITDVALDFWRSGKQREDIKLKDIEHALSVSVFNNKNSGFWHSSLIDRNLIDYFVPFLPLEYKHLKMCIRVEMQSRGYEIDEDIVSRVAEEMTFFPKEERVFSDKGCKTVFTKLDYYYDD
# UniProt O14948: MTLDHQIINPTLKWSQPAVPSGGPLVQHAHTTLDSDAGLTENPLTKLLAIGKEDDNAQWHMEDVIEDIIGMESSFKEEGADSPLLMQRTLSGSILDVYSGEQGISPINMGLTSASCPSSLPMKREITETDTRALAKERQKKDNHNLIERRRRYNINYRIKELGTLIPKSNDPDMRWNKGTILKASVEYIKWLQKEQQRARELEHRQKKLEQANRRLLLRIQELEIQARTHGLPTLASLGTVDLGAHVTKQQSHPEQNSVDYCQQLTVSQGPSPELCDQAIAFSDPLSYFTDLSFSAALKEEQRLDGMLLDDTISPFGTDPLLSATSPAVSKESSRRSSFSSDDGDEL
# UniProt B7ZW38: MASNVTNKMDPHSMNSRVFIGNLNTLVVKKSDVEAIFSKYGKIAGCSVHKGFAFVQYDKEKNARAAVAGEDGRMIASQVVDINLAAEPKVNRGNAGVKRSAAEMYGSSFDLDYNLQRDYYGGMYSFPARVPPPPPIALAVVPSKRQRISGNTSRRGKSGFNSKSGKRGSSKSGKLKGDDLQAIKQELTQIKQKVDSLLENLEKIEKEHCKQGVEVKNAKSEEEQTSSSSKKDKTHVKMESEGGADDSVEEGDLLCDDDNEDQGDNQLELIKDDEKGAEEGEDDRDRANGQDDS
# UniProt O00232: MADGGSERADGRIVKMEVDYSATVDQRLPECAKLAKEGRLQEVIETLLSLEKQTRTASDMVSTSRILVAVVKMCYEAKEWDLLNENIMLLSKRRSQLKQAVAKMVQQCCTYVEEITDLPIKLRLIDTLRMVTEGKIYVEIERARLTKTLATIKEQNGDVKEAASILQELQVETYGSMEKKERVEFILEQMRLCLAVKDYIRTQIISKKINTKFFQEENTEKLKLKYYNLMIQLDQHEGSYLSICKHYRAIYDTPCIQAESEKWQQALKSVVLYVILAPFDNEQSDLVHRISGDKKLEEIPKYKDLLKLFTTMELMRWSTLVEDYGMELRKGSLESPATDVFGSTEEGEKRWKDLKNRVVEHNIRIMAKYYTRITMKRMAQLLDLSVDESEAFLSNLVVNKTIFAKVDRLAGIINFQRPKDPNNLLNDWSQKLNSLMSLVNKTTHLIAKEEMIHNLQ
# UniProt O00488: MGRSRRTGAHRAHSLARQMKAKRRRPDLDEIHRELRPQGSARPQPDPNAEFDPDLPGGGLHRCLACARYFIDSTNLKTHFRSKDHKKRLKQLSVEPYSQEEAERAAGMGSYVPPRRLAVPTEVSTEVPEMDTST
# UniProt O00287: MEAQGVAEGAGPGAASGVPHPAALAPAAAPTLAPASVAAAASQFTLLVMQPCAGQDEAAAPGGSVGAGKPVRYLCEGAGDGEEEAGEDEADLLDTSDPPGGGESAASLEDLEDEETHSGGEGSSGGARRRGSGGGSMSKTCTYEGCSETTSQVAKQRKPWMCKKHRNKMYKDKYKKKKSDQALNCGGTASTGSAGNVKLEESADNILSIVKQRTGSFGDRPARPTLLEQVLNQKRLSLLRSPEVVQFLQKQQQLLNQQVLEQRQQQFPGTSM
# UniProt O14544: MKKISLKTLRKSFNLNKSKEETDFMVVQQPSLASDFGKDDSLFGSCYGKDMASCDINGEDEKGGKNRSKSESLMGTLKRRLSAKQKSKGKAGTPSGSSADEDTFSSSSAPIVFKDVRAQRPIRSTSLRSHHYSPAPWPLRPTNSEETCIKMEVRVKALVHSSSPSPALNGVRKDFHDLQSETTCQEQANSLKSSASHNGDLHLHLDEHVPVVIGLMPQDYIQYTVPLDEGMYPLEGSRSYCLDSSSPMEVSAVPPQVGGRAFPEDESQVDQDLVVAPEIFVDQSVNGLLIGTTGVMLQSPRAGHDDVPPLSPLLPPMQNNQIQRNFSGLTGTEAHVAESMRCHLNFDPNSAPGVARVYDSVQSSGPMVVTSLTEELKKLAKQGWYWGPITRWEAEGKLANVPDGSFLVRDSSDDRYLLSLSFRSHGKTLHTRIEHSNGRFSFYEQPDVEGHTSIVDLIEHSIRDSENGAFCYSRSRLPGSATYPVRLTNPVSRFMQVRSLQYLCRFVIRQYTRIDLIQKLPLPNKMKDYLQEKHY
# UniProt O14773: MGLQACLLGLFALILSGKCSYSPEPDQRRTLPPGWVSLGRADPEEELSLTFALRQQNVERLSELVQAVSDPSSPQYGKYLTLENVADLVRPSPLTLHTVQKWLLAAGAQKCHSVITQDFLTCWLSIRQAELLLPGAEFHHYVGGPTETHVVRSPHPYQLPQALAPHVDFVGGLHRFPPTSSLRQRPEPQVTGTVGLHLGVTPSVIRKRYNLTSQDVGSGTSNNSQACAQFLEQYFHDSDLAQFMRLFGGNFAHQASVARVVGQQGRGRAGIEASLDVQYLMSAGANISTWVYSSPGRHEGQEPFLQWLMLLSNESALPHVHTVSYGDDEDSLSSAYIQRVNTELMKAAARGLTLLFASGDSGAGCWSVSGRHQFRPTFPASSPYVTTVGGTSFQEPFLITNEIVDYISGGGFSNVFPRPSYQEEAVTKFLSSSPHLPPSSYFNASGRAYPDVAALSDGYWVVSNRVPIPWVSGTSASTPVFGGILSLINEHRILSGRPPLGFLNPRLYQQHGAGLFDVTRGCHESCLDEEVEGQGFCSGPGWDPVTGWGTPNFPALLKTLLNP
# UniProt O15155: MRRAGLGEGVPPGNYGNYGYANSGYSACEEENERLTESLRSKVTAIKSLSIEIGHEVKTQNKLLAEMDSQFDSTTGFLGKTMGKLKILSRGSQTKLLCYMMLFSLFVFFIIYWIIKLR
# UniProt O00429, whole entry: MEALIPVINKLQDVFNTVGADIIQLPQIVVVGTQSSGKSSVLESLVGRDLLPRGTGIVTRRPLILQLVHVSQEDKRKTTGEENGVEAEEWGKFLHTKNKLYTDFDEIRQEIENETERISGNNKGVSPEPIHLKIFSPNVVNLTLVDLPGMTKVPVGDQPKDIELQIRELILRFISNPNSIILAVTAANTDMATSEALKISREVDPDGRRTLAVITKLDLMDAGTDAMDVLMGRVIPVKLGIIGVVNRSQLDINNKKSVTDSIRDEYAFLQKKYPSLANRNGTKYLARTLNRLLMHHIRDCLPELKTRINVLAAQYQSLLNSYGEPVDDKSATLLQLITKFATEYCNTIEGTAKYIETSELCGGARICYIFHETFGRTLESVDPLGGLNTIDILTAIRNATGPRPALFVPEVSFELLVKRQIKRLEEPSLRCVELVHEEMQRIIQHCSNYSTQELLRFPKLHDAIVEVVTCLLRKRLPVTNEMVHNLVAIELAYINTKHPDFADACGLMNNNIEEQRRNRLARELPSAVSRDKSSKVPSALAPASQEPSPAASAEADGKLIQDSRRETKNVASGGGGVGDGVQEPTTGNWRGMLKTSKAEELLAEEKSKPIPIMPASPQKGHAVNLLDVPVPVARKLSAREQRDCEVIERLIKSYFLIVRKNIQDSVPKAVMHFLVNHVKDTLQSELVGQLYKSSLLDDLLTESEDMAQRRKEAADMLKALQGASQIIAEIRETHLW
# The other results are listed elsewhere or left out. Most values lie at the level of the controls, where differences are scatter.
# Compound: CN[C@@H]1C[C@H]2O[C@@](C)([C@@H]1OC)n1c3ccccc3c3c4c(c5c6ccccc6n2c5c31)C(=O)NC4 [staurosporine]
# Test: log2 fold change of tryptic peptide abundance, ligand vs vehicle (limited proteolysis) (log2 ratio); higher = more trypsin-susceptible (destabilized)
# Details: ligand concentration: 20 uM; sample: K562 cleared lysate; digestion: 4 min, 22 C (HT-PELSA RT4min, Orbitrap Astral)
row,Target,log2 fold change
1,"FBLL1 (peptide sequence: IVALNAHTFLR, peptide start residue: 245) (UniProt A6NHQ2)",0.0273
2,"UniProt A6NI28 (peptide sequence: GITILGLYR, peptide start residue: 409)",-0.0774
3,"UniProt O00442 (peptide sequence: GGIHTADTK, peptide start residue: 86)",0.355
4,"AIP (peptide sequence: YYDAIACLKNLQMK, peptide start residue: 202) (UniProt O00170)",-0.676
5,"OPLAH (peptide sequence: ITDPEILESR, peptide start residue: 1145) (UniProt O14841)",-0.704
6,"SOCS2 (peptide sequence: TSAGPTNLR, peptide start residue: 88) (UniProt O14508)",-0.115
7,"MEN1 (peptide sequence: KPPGTVAGTAR, peptide start residue: 522) (UniProt O00255)",0.319
8,"TOR1A (peptide sequence: LYCLFAECCGQKR, peptide start residue: 42) (UniProt O14656)",0.532
9,"MYO1F (peptide sequence: GFGDLAVLK, peptide start residue: 897) (UniProt O00160)",-0.499
10,"APAF1 (peptide sequence: KADLPEQAHSIIK, peptide start residue: 303) (UniProt O14727)",-0.318
11,"UniProt O14948 (peptide sequence: DNHNLIER, peptide start residue: 314)",0.141
12,"MCRIP1 (peptide sequence: SPPSSSEIFTPAHEENVR, peptide start residue: 21) (UniProt C9JLW8)",-0.0656
13,"UniProt B7ZW38 (peptide sequence: VFIGNLNTLVVK, peptide start residue: 18)",-0.0571
14,"TRIM24 (peptide sequence: ALLHQLESLAK, peptide start residue: 326) (UniProt O15164)",0.221
15,"PSMD12 (peptide sequence: EWDLLNENIMLLSK, peptide start residue: 79) (UniProt O00232)",0.249
16,"PIP5K1B (peptide sequence: IVVMNNVLPR, peptide start residue: 185) (UniProt O14986)",-0.557
17,"ZNF593 (peptide sequence: AAGMGSYVPPR, peptide start residue: 105) (UniProt O00488)",0.244
18,"RFXAP (peptide sequence: QQQLLNQQVLEQR, peptide start residue: 251) (UniProt O00287)",0.168
19,"HMGN4 (peptide sequence: VKDEPQR, peptide start residue: 17) (UniProt O00479)",0.0627
20,"SOCS6 (peptide sequence: LANVPDGSFLVR, peptide start residue: 398) (UniProt O14544)",-0.237
21,"ARVCF (peptide sequence: GVPALVALVASSQSVR, peptide start residue: 802) (UniProt O00192)",-0.361
22,"TPP1 (peptide sequence: LYQQHGAGLFDVTR, peptide start residue: 507) (UniProt O14773)",-0.233
23,"PITPNM1 (peptide sequence: EGPGTPPTTLAR, peptide start residue: 1219) (UniProt O00562)",0.212
24,"BET1 (peptide sequence: SLSIEIGHEVK, peptide start residue: 48) (UniProt O15155)",0.00283
25,"DNM1L (peptide sequence: LLMHHIR, peptide start residue: 292) (UniProt O00429)",0.312
26,"CHD1 (peptide sequence: IGDHITECLK, peptide start residue: 1454) (UniProt O14646)",-0.542

# Retrieved one by one from above:
row,Target,log2 fold change
19,"HMGN4 (peptide sequence: VKDEPQR, peptide start residue: 17) (UniProt O00479)",0.0627
12,"MCRIP1 (peptide sequence: SPPSSSEIFTPAHEENVR, peptide start residue: 21) (UniProt C9JLW8)",-0.0656
